These are yes or no findings as the source states them, for the method shown. In cells and extracts the contact can be indirect. Binding calls can cover weak binding; strength is not graded here.
Target: T1, KIM1 precipitated with anti-KIM1 in the DR5 domain mapping (human) (UniProt Q96D42)
T1 sequence: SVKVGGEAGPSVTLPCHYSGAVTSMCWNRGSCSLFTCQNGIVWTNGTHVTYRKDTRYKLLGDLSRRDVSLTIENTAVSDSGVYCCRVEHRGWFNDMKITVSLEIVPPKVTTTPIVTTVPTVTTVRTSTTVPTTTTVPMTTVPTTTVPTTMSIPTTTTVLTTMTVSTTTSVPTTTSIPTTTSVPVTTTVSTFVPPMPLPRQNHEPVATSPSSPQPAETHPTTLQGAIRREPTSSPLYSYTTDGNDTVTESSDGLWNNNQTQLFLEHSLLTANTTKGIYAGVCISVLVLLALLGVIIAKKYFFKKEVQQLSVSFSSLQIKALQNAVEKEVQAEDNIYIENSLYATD
Assay: co-IP; IP with anti-KIM1 or non-specific IgG; WT and mutants of DR5-Flag detected with anti-Flag; cells not given

binding | Substance
binds | Flag-tagged DR5 ΔCytD (human) (domain or fragment)
no binding | Flag-tagged DR5 ΔECD (human) (domain or fragment)
binds | Flag-tagged DR5 ΔTMH (human) (domain or fragment)

— article PMC10352345
